Measured values from PMC7468108 (Communications Biology, 2020).
Further values from the same series stand in other lists.

Sequences of proteins named here, by UniProt entry; tags and fusion partners are left off. Residues count along the entry.
UniProt P05067, 672-713 limits assumed: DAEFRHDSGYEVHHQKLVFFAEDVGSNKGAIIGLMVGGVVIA

Target: T1, Aβ42 (Homo sapiens, UniProt P05067)
T1 construct: purchased rPeptide (USA)
Experiment: CD spectroscopy of Aβ42 aggregated with the tested molecules
Settings: Aβ42 (10 µM) : molecule 1:5
Protocol: The blank was subtracted from the acquired CD spectra. For the CD study in the presence of the tryptophan-galacosylamine molecules, the spectra of hybrid molecules were also recorded separately and subtracted from the respective sample spectra. The normalized data were plotted using Origin pro 2015 software.

## NC(Cc1c[nH]c2ccccc12)C(=O)NC(Cc1c[nH]c2ccccc12)C(=O)O (stereo not drawn) [WW]
Wave length 190.0
  Normalized CD spectra: -64297.4
Wave length 190.5
  Normalized CD spectra: -48196.1
Wave length 191.0
  Normalized CD spectra: -33986.0
Wave length 191.5
  Normalized CD spectra: -21666.9
Wave length 192.0
  Normalized CD spectra: -11238.9
Wave length 192.5
  Normalized CD spectra: -2702.0
Wave length 193.0
  Normalized CD spectra: 3943.8
Wave length 193.5
  Normalized CD spectra: 8698.6
Wave length 194.0
  Normalized CD spectra: 11562.2
Wave length 194.5
  Normalized CD spectra: 12534.7
Wave length 195.0
  Normalized CD spectra: 11616.1
Wave length 195.5
  Normalized CD spectra: 30824.9
Wave length 196.0
  Normalized CD spectra: 13877.2
Wave length 196.5
  Normalized CD spectra: 1645.7
Wave length 197.0
  Normalized CD spectra: -25087.7
Wave length 197.5
  Normalized CD spectra: -25187.0
Wave length 198.0
  Normalized CD spectra: -50636.9
Wave length 198.5
  Normalized CD spectra: -63708.3
Wave length 199.0
  Normalized CD spectra: -77024.6
Wave length 199.5
  Normalized CD spectra: -89375.7
Wave length 200.0
  Normalized CD spectra: -105751.5
Wave length 200.5
  Normalized CD spectra: -123912.8
Wave length 201.0
  Normalized CD spectra: -139965.2
Wave length 201.5
  Normalized CD spectra: -155380.1
Wave length 202.0
  Normalized CD spectra: -174065.1
Wave length 202.5
  Normalized CD spectra: -190525.8
Wave length 203.0
  Normalized CD spectra: -209796.0
Wave length 203.5
  Normalized CD spectra: -227090.2
Wave length 204.0
  Normalized CD spectra: -243672.0
Wave length 204.5
  Normalized CD spectra: -261250.5
Wave length 205.0
  Normalized CD spectra: -283648.5
Wave length 205.5
  Normalized CD spectra: -299550.3
Wave length 206.0
  Normalized CD spectra: -313909.9
Wave length 206.5
  Normalized CD spectra: -330370.2
Wave length 207.0
  Normalized CD spectra: -352368.3
Wave length 207.5
  Normalized CD spectra: -366472.9
Wave length 208.0
  Normalized CD spectra: -384318.3
Wave length 208.5
  Normalized CD spectra: -400225.0
Wave length 209.0
  Normalized CD spectra: -414097.1
Wave length 209.5
  Normalized CD spectra: -431143.1
Wave length 210.0
  Normalized CD spectra: -444840.8
Wave length 210.5
  Normalized CD spectra: -452976.0
Wave length 211.0
  Normalized CD spectra: -462299.6
Wave length 211.5
  Normalized CD spectra: -474209.7
Wave length 212.0
  Normalized CD spectra: -483100.4
Wave length 212.5
  Normalized CD spectra: -491764.7
Wave length 213.0
  Normalized CD spectra: -496873.3
Wave length 213.5
  Normalized CD spectra: -500059.5
Wave length 214.0
  Normalized CD spectra: -507486.5
Wave length 214.5
  Normalized CD spectra: -513352.0
Wave length 215.0
  Normalized CD spectra: -517976.0
Wave length 215.5
  Normalized CD spectra: -519706.0
Wave length 216.0
  Normalized CD spectra: -515831.1
Wave length 216.5
  Normalized CD spectra: -520834.7
Wave length 217.0
  Normalized CD spectra: -526466.2
Wave length 217.5
  Normalized CD spectra: -527163.0
Wave length 218.0
  Normalized CD spectra: -530743.5
Wave length 218.5
  Normalized CD spectra: -530612.1
Wave length 219.0
  Normalized CD spectra: -531399.2
Wave length 219.5
  Normalized CD spectra: -531887.6
Wave length 220.0
  Normalized CD spectra: -525174.6
Wave length 220.5
  Normalized CD spectra: -519778.8
Wave length 221.0
  Normalized CD spectra: -516073.5
Wave length 221.5
  Normalized CD spectra: -510544.1
Wave length 222.0
  Normalized CD spectra: -503880.7
Wave length 222.5
  Normalized CD spectra: -492277.0
Wave length 223.0
  Normalized CD spectra: -478520.0
Wave length 223.5
  Normalized CD spectra: -469699.4
Wave length 224.0
  Normalized CD spectra: -456039.8
Wave length 224.5
  Normalized CD spectra: -442374.1
Wave length 225.0
  Normalized CD spectra: -431956.3
Wave length 225.5
  Normalized CD spectra: -420538.9
Wave length 226.0
  Normalized CD spectra: -406416.4
Wave length 226.5
  Normalized CD spectra: -402486.4
Wave length 227.0
  Normalized CD spectra: -390234.2
Wave length 227.5
  Normalized CD spectra: -375736.8
Wave length 228.0
  Normalized CD spectra: -364981.6
Wave length 228.5
  Normalized CD spectra: -349749.5
Wave length 229.0
  Normalized CD spectra: -335216.5
Wave length 229.5
  Normalized CD spectra: -321156.5
Wave length 230.0
  Normalized CD spectra: -303469.3
Wave length 230.5
  Normalized CD spectra: -292156.5
Wave length 231.0
  Normalized CD spectra: -278212.5
Wave length 231.5
  Normalized CD spectra: -265555.2
Wave length 232.0
  Normalized CD spectra: -251517.9
Wave length 232.5
  Normalized CD spectra: -234503.9
Wave length 233.0
  Normalized CD spectra: -219459.4
Wave length 233.5
  Normalized CD spectra: -207021.0
Wave length 234.0
  Normalized CD spectra: -194184.2
Wave length 234.5
  Normalized CD spectra: -182951.0
Wave length 235.0
  Normalized CD spectra: -174445.0
Wave length 235.5
  Normalized CD spectra: -168793.7
Wave length 236.0
  Normalized CD spectra: -163003.2
Wave length 236.5
  Normalized CD spectra: -157071.1
Wave length 237.0
  Normalized CD spectra: -149970.6
Wave length 237.5
  Normalized CD spectra: -145745.9
Wave length 238.0
  Normalized CD spectra: -139959.7
Wave length 238.5
  Normalized CD spectra: -132832.8
Wave length 239.0
  Normalized CD spectra: -124788.8
Wave length 239.5
  Normalized CD spectra: -116693.6
Wave length 240.0
  Normalized CD spectra: -110389.7
Wave length 240.5
  Normalized CD spectra: -108562.8
Wave length 241.0
  Normalized CD spectra: -100105.9
Wave length 241.5
  Normalized CD spectra: -96239.6
Wave length 242.0
  Normalized CD spectra: -86950.7
Wave length 242.5
  Normalized CD spectra: -82350.1
Wave length 243.0
  Normalized CD spectra: -78251.8
Wave length 243.5
  Normalized CD spectra: -74078.3
Wave length 244.0
  Normalized CD spectra: -70011.9
Wave length 244.5
  Normalized CD spectra: -66567.4
Wave length 245.0
  Normalized CD spectra: -65681.1
Wave length 245.5
  Normalized CD spectra: -66045.3
Wave length 246.0
  Normalized CD spectra: -64181.4
Wave length 246.5
  Normalized CD spectra: -63897.4
Wave length 247.0
  Normalized CD spectra: -66271.9
Wave length 247.5
  Normalized CD spectra: -66923.6
Wave length 248.0
  Normalized CD spectra: -65794.6
Wave length 248.5
  Normalized CD spectra: -65799.5
Wave length 249.0
  Normalized CD spectra: -65544.8
Wave length 249.5
  Normalized CD spectra: -65561.8
Wave length 250.0
  Normalized CD spectra: -66156.0
Wave length 250.5
  Normalized CD spectra: -66081.9
Wave length 251.0
  Normalized CD spectra: -62984.6
Wave length 251.5
  Normalized CD spectra: -62588.4
Wave length 252.0
  Normalized CD spectra: -59304.7
Wave length 252.5
  Normalized CD spectra: -60158.9
Wave length 253.0
  Normalized CD spectra: -60540.3
Wave length 253.5
  Normalized CD spectra: -59144.3
Wave length 254.0
  Normalized CD spectra: -57495.8
Wave length 254.5
  Normalized CD spectra: -57794.3
Wave length 255.0
  Normalized CD spectra: -56709.1
Wave length 255.5
  Normalized CD spectra: -55609.7
Wave length 256.0
  Normalized CD spectra: -54583.8
Wave length 256.5
  Normalized CD spectra: -53631.4
Wave length 257.0
  Normalized CD spectra: -52752.4
Wave length 257.5
  Normalized CD spectra: -51946.8
Wave length 258.0
  Normalized CD spectra: -51214.7
Wave length 258.5
  Normalized CD spectra: -50556.0
Wave length 259.0
  Normalized CD spectra: -49970.7
Wave length 259.5
  Normalized CD spectra: -49458.9
Wave length 260.0
  Normalized CD spectra: -49020.6
